Like-named read-outs stand apart in the source and are kept apart here. Some results were stated once for a whole list of compounds, not compound by compound. At least one structure is not confirmed: it was looked up by name or label, or the drawing left a doubt.
Assays:
[1] = test system: Pyricularia oryzae; settings: in vivo
[2] = test system: Pyricularia oryzae; settings: in vivo; remark: listed apart in the source
[3] = test system: Pyricularia oryzae; format: in vivo
[4] = water surface application, active compound dosage 8 kg/ha, inoculation 7 days after treatment, evaluated 7 days after inoculation

SMILES: Cc1cccc(C(=O)CC(=O)c2snc(Cl)c2Cl)c1 [Ic-77]
- control value [1]: more than 80%
- control value [2]: more than 80%

SMILES: O=C(CC(=O)c1snc(Cl)c1Cl)c1ccc([N+](=O)[O-])cc1 [Ic-135]
- control value [1]: more than 80%

SMILES: CCCCN(C(=O)c1snc(Cl)c1Cl)S(=O)(=O)c1ccccc1 [Ia-132]
- control value ([3]; in vivo): more than 80%

SMILES: COc1ccc(S(=O)(=O)N(C(=O)c2snc(Cl)c2Cl)c2ccc(Cl)cc2)cc1 [Ia-68, N-(3,4-dichloro-5-isothiazolecarbonyl)-N-(4-chlorophenyl)-4-methoxybenzenesulfonamide]
- control value [3, 4]: more than 80%
- control value [2]: more than 80%

SMILES: COc1ccc(C(=O)CC(=O)c2snc(Cl)c2Cl)cc1OC [Ic-58]
- control value [3, 4]: more than 80%

SMILES: CN(C(=O)c1snc(Cl)c1Cl)S(=O)(=O)c1ccc(Cl)cc1 [Ia-100]
- control value [1]: more than 80%
- control value [2]: more than 80%

SMILES: O=C(CC(=O)c1snc(Cl)c1Cl)c1ccc(C(F)(F)F)cc1Cl [Ic-37]
- control value [1]: more than 80%
- control value [3, 4]: more than 80%

SMILES: CCOCOc1ccc(C(=O)CC(=O)c2snc(Cl)c2Cl)cc1 [Ic-145, 1-(3,4-dichloro-5-isothiazolyl)-3-(4-ethoxymethoxyphenyl)-1,3-propanedione]
- control value [3, 4]: more than 80%

SMILES: O=C(CC(=O)c1snc(Cl)c1Cl)c1ccc2c(c1)OCCCO2 [Ic-63]
- control value [3, 4]: more than 80%

SMILES: CN(C(=O)c1snc(Cl)c1Cl)S(=O)(=O)c1ccc(Oc2cccc(Cl)c2C#N)cc1 [Ia-118]
- control value [1]: more than 80%

SMILES: CS(=O)(=O)NC(=O)c1snc(Cl)c1Cl [Ib-61]
- control value [2]: more than 80%

SMILES: O=C(CC(=O)c1snc(Cl)c1Cl)c1ccccc1[N+](=O)[O-] [Ic-47]
- control value [1]: more than 80%

SMILES: O=C(CC(=O)c1snc(Cl)c1Cl)c1ccc(Br)cc1 [Ic-108]
- control value [1]: more than 80%

SMILES: O=C(CC(=O)c1snc(Cl)c1Cl)c1ccc(Cl)cc1Cl [Ic-17]
- control value [2]: more than 80%

SMILES: CC1(C)C2CCC1(CS(=O)(=O)N(C(=O)c1snc(Cl)c1Cl)c1ccc(Cl)cc1)C(=O)C2 (centres unmarked) [Ib-3]
- control value [3, 4]: more than 80%
- control value [2]: more than 80%

SMILES: O=C(CC(=O)c1snc(Cl)c1Cl)c1cccc([N+](=O)[O-])c1 [Ic-89]
- control value [1]: more than 80%

SMILES: Nc1ccc(S(=O)(=O)NC(=O)c2snc(Cl)c2Cl)cc1 [Ia-112]
- control value [1]: more than 80%
- control value [2]: more than 80%

SMILES: Cc1cc(C)c(C(=O)CC(=O)c2snc(Cl)c2Cl)c(C)c1 [Ic-16]
- control value [1]: more than 80%

SMILES: O=C(CC(=O)c1snc(Cl)c1Cl)c1ccc(Cl)c(Cl)c1Cl [Ic-5]
- control value [1]: more than 80%
- control value [3, 4]: more than 80%
- control value [2]: more than 80%

SMILES: CCCCCCCCS(=O)(=O)N(C)C(=O)c1snc(Cl)c1Cl [Ib-38]
- control value [1]: more than 80%
- control value [2]: more than 80%

SMILES: Cc1ccc(C(=O)CC(=O)c2snc(Cl)c2Cl)cc1C [Ic-57]
- control value [1]: more than 80%
- control value [3, 4]: more than 80%
- control value [2]: more than 80%

SMILES: COc1cc(C)c(C(=O)CC(=O)c2snc(Cl)c2Cl)cc1OC [Ic-36]
- control value [3, 4]: more than 80%
- control value [2]: more than 80%

SMILES: CN(C)c1ccc(C(=O)CC(=O)c2snc(Cl)c2Cl)cc1 [Ic-125]
- control value [1]: more than 80%
- control value [3, 4]: more than 80%

SMILES: CC(C)N(C(=O)c1snc(Cl)c1Cl)S(=O)(=O)c1ccc(Cl)cc1 [Ia-103]
- control value [1]: more than 80%
- control value ([3]; in vivo): more than 80%
- control value [2]: more than 80%

SMILES: O=C(CC(=O)c1snc(Cl)c1Cl)c1ccc(-c2ccccc2)cc1 [Ic-111]
- control value [2]: more than 80%

SMILES: O=C(NS(=O)(=O)c1ccc(Cl)cc1)c1snc(Cl)c1Cl [Ia-102]
- control value [2]: more than 80%

SMILES: O=C(CC(=O)c1snc(Cl)c1Cl)c1ccc(O)cc1 [Ic-148, 1-(3,4-dichloro-5-isothiazolyl)-3-(4-hydroxyphenyl)-1,3-propanedione]
- control value [1]: more than 80%
- control value [3, 4]: more than 80%
- control value [2]: more than 80%

SMILES: CN(C(=O)c1snc(Cl)c1Cl)S(=O)(=O)c1cccc(Cl)c1 [Ia-56]
- control value [1]: more than 80%

SMILES: O=C(CC(=O)c1snc(Cl)c1Cl)c1ccc(F)c(Br)c1 [Ic-73]
- control value [1]: more than 80%
- control value [2]: more than 80%

SMILES: CC(C)CC(C)N(C(=O)c1snc(Cl)c1Cl)S(=O)(=O)c1ccc(Cl)cc1 (centres unmarked) [Ia-98]
- control value [1]: more than 80%
- control value [2]: more than 80%

SMILES: CN(C(=O)c1snc(Cl)c1Cl)S(=O)(=O)c1ccc(C#N)cc1 [Ia-109]
- control value [2]: more than 80%

SMILES: CC(C)N(C(=O)c1snc(Cl)c1Cl)S(=O)(=O)c1ccc(Cl)c([N+](=O)[O-])c1 [Ia-62]
- control value [2]: more than 80%

SMILES: O=C(CC(=O)c1snc(Cl)c1Cl)c1cc(Cl)cc(Cl)c1 [Ic-70]
- control value [3, 4]: more than 80%
- control value [2]: more than 80%

SMILES: CCN(C(=O)c1snc(Cl)c1Cl)S(=O)(=O)c1ccc(C)cc1 [Ia-84]
- control value ([3]; in vivo): more than 80%

SMILES: O=C(CC(=O)c1snc(Cl)c1Cl)c1ccccc1Br [Ic-30]
- control value [1]: more than 80%
- control value [2]: more than 80%

SMILES: C=CCN(C(=O)c1snc(Cl)c1Cl)S(=O)(=O)c1ccc(Cl)cc1 [Ia-99]
- control value ([3]; in vivo): more than 80%
- control value [2]: more than 80%

SMILES: COC(=O)C(C#N)C(=O)c1snc(Cl)c1Cl (centres unmarked) [Ie-1, methyl 2-cyano-3-(3,4-dichloro-5-isothiazolyl)-3-oxopropanoate]
- control value [1]: more than 80%
- control value [3, 4]: more than 80%

SMILES: Cc1ccc(S(=O)(=O)N(C)C(=O)c2snc(Cl)c2Cl)cc1 [Ia-86]
- control value ([3]; in vivo): more than 80%

SMILES: O=C(c1snc(Cl)c1Cl)N(c1ccccc1)S(=O)(=O)c1cccs1 [Ib-19]
- control value [1]: more than 80%

SMILES: O=C(CC(=O)c1snc(Cl)c1Cl)c1cccc(Cl)c1Cl [Ic-9]
- control value [3, 4]: more than 80%
- control value [2]: more than 80%

SMILES: Cc1ccccc1C(=O)CC(=O)c1snc(Cl)c1Cl [Ic-35]
- control value [2]: more than 80%

SMILES: O=C(CC(=O)c1snc(Cl)c1Cl)c1cccc(Cl)c1 [Ic-79]
- control value [2]: more than 80%

SMILES: COc1cccc(C(=O)CC(=O)c2snc(Cl)c2Cl)c1 [Ic-103]
- control value [1]: more than 80%
- control value [2]: more than 80%

SMILES: O=C(CC(=O)c1snc(Cl)c1Cl)c1ccccc1Cl [Ic-38]
- control value [1]: more than 80%
- control value [3, 4]: more than 80%
- control value [2]: more than 80%

SMILES: O=C(CC(=O)c1snc(Cl)c1Cl)c1ccc(Cl)cc1 [Ic-114]
- control value [2]: more than 80%

SMILES: O=C(CC(=O)c1snc(Cl)c1Cl)c1ccc(C(F)(F)F)cc1 [Ic-112]
- control value [1]: more than 80%
- control value [2]: more than 80%

SMILES: COc1cc(Cl)ccc1C(=O)CC(=O)c1snc(Cl)c1Cl [Ic-54]
- control value [2]: more than 80%

SMILES: CC(C)Oc1cccc(C(=O)CC(=O)c2snc(Cl)c2Cl)c1 [Ic-105]
- control value [1]: more than 80%
- control value [3, 4]: more than 80%
- control value [2]: more than 80%

SMILES: CN(C(=O)c1snc(Cl)c1Cl)S(=O)(=O)c1ccccc1[N+](=O)[O-] [Ia-37]
- control value [1]: more than 80%

SMILES: COC(=O)C(C(C)C)N(C(=O)c1snc(Cl)c1Cl)S(=O)(=O)c1ccc(Cl)cc1Cl (centres unmarked) [Ia-10]
- control value [1]: more than 80%
- control value [2]: more than 80%

SMILES: CC(C)N(C(=O)c1snc(Cl)c1Cl)S(=O)(=O)c1cc(Cl)cc(Cl)c1 [Ia-46]
- control value [1]: more than 80%
- control value ([3]; in vivo): more than 80%
- control value [2]: more than 80%

SMILES: O=C(CC(=O)c1snc(Cl)c1Cl)c1ccccc1C(F)(F)F [Ic-33]
- control value [1]: more than 80%
- control value [2]: more than 80%

SMILES: O=C(NS(=O)(=O)C(F)(F)F)c1snc(Cl)c1Cl [Ib-39]
- control value [3, 4]: more than 80%
- control value [2]: more than 80%

SMILES: O=C(CC(=O)c1snc(Cl)c1Cl)c1cc(C(F)(F)F)cc(C(F)(F)F)c1 [Ic-66]
- control value [1]: more than 80%
- control value [3, 4]: more than 80%

SMILES: Cc1ccc(C(=O)CC(=O)c2snc(Cl)c2Cl)cc1 [Ic-113]
- control value [1]: more than 80%
- control value [2]: more than 80%

SMILES: C#CCN(C(=O)c1snc(Cl)c1Cl)S(=O)(=O)c1cccc(Cl)c1 [Ia-58]
- control value ([3]; in vivo): more than 80%

SMILES: CN(C(=O)c1snc(Cl)c1Cl)S(=O)(=O)c1ccc([N+](=O)[O-])cc1 [Ia-117]
- control value [1]: more than 80%
- control value [2]: more than 80%

SMILES: O=C(CC(=O)c1snc(Cl)c1Cl)c1ccc(F)c(F)c1 [Ic-62]
- control value [1]: more than 80%
- control value [2]: more than 80%

SMILES: O=C(CC(=O)c1snc(Cl)c1Cl)c1cc(Cl)ccc1Cl [Ic-23]
- control value [1]: more than 80%

SMILES: CC(C)Cc1ccc(C(=O)CC(=O)c2snc(Cl)c2Cl)cc1 [Ic-122]
- control value [3, 4]: more than 80%
- control value [2]: more than 80%

SMILES: N#Cc1ccc(C(=O)CC(=O)c2snc(Cl)c2Cl)cc1 [Ic-115]
- control value [2]: more than 80%

From patent US6706748B2 (priority 2000, dated 2004)
